Laboratory results published in PMC9868005, “Structural and functional characterization of TraI from pKM101 reveals basis for DNA processing”.

Key:
Assay in all cases: EMSA
[1] = molecular target: T1, TraI helicase domain (TraI-H) (UniProt D9Z5Q2); conditions: low affinity, EMSA: 50 nM FITC-DNA, 0-1600 nM protein, 25 mM Hepes-NaOH pH 7.0, 300 mM NaCl, room temperature 15 min, 5% PAGE, 0.75x TBE, 4 C, recombinant protein, residues 429-910, protein details: 10xHis with 3C site, cleaved off
T1 sequence (looked up): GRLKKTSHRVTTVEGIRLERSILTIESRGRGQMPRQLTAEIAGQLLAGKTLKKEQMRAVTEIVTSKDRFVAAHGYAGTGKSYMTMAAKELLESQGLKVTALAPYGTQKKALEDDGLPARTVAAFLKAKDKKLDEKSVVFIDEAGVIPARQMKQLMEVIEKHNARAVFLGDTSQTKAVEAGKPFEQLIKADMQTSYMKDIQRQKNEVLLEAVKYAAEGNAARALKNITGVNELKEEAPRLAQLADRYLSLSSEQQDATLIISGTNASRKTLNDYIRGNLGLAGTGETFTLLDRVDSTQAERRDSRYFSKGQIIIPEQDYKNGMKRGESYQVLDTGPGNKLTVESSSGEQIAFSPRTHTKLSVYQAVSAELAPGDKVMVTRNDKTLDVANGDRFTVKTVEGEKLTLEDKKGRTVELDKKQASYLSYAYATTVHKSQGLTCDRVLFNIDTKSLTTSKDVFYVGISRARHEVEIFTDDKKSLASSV

[2] = molecular target: T2, TraI trans-esterase domain (TraI-TE) (UniProt D9Z5Q2); conditions: interaction only above 800 or 1600 nM (which DNA not specified), EMSA: 50 nM FITC-DNA, 0-1600 nM protein, 25 mM Hepes-NaOH pH 7.0, 300 mM NaCl, room temperature 15 min, 5% PAGE, 0.75x TBE, 4 C, recombinant protein, residues 1-299, protein details: 10xHis with 3C site, cleaved off, single-stranded DNA
T2 sequence (looked up): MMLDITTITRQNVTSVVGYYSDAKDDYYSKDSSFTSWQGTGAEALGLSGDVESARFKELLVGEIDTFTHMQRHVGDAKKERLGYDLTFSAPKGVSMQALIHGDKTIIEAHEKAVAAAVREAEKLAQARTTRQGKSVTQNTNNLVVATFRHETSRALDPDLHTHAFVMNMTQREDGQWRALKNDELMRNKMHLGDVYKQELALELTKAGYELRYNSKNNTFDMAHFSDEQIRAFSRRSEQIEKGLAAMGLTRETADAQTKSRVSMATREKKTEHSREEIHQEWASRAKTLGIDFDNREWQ

TraI full-length = molecular target: T3, TraI full-length (UniProt D9Z5Q2); conditions: EMSA: 50 nM FITC-DNA, 0-1600 nM protein, 25 mM Hepes-NaOH pH 7.0, 300 mM NaCl, room temperature 15 min; 5% PAGE, 0.75x TBE, 4 C; recombinant protein; protein details: 10xHis with 3C site, cleaved off; label: 5' FITC; single-stranded DNA
T3 sequence (looked up, limits assumed): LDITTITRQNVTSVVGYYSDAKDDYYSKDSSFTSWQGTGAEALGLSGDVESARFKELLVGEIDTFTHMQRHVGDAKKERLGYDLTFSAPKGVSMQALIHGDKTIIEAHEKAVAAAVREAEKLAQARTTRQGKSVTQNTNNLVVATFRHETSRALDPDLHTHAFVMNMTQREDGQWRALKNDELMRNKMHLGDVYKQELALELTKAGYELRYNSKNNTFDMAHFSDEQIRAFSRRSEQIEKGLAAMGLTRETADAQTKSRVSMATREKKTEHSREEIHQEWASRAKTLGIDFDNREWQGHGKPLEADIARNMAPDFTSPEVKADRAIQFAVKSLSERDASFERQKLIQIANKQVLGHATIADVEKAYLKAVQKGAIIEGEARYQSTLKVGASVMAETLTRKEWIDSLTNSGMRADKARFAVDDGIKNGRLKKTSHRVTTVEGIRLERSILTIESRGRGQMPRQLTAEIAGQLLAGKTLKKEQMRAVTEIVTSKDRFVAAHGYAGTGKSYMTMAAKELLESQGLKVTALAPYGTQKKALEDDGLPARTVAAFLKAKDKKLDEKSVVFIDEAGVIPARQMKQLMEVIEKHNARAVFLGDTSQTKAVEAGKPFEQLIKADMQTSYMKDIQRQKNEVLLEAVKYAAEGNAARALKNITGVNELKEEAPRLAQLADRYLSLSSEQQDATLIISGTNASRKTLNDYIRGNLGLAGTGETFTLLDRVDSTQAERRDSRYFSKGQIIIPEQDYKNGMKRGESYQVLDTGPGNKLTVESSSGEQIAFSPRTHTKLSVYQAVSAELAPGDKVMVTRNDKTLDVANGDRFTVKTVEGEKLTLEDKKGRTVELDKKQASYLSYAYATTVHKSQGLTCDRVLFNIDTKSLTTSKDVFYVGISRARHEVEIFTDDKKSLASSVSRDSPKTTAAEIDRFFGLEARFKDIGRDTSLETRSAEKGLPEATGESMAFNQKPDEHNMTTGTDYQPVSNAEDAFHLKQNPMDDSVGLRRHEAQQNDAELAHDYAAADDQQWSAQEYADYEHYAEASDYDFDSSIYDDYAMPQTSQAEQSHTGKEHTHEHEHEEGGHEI

TGTGATAGCGTGATTTATCGCGCTGCGTTAGGTGT [F-oriT35]
binding result ([1]; weaker than with 57-mer, label: 5' FITC, folded or branched DNA): binds more weakly

TGTGATAGCGTGATTTATCGCGCTGCGTTAGGTGTATAGCAGGTTAAGGGATAAAAA [F-oriT57]
binding result ([1]; no sequence specificity, label: 5' FITC, folded or branched DNA): binds more weakly

ATAGCAGGTTAAGGGATAAAAA [oriT22-F]
binding result ([1]; weaker than with 57-mer, label: 3' FITC, single-stranded DNA): binds more weakly | half-maximal binding ([2]; label: 3' FITC): > 800 nM

TCCGCCATGCAGACGAGACCAGTCGGAGATTACCGAGCATTCTATCAGGTCGGCGAC [F-Random57]
binding result ([1]; 400 nM needed for significant shift, label: 5' FITC, single-stranded DNA): binds more weakly

CACTAGTGAGCTACTGGAGCCGAGGGGTAACCACG [F-Random35]
binding result ([1]; weaker than with 57-mer, label: 5' FITC, single-stranded DNA): binds more weakly | half-maximal binding ([2]; label: 5' FITC): > 800 nM | binding result (TraI full-length): binds

For some assays here: Weaker means in comparison with the reference protein, sequence or condition of that experiment. Tags and fusion partners may be left off the protein sequences shown. The exact form of at least one protein or probe is not confirmed. For some assays here: At least one verdict rests on a figure or table, not on a statement of the authors.
